Measured data: PubChem BioAssay AID504764 (Drosophila RNAi Screening Center, 2011)

Test: 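Genome-wide screen for regulators of Notch-driven gene expression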 (primary screen)
Cell system: Drosophila Kc167 cells
Reagent: long dsRNA against Drosophila genes
Time to read-out: about 5 days (4 days dsRNA, then 24 h after transfection)
Treatment: transfection of constitutively active membrane-tethered Notch lacking the extracellular domain, read 24 h later
Measured: 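Firefly luciferase from an E(spl)m3 reporter with active Notch, plus control-promoter and uninduced reporter wells for normalisation; unnormalised counts, duplicate wells a and b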
Reading the numbers: induced reporter light, run 1, well a and induced reporter light, run 1, well b: higher = more light from the Notch target reporter with active Notch; control promoter light, run 1, well a and control promoter light, run 1, well b: higher = more light from the viral control promoter (cell number, transfection, viability); uninduced reporter light, run 1, well a: higher = more light from the Notch target reporter without active Notch
Active means: 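Wells with low control signal or poorly matching duplicates excluded; duplicates averaged; per source plate, z beyond ±2 for induced/control log2 ratio or beyond ±1.8 for induced/uninduced marks a hit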
Calls: active = modifier hit (raised or lowered Notch signal); inactive = not a hit
In all, the deposit lists about 22,000 reagents; shown is an unselected part of those that have a named target and a result. Over the whole deposit, 403 (1.9%) got an active call. 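Unnormalised raw counts per well; ratio z-scores behind the hit calls and whether each hit raises or lowers signal are not deposited.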 Unmarked entries are inactive. No sequences are given here. Not stated in the record: the amount of reagent.

For CG6454 [DRSC16044], the values are induced reporter light, run 1, well a = 1.61e5; induced reporter light, run 1, well b = 1.62e5; control promoter light, run 1, well a = 2.19e5; control promoter light, run 1, well b = 2.18e5; uninduced reporter light, run 1, well a = 15150. After knock-down of Tehao [DRSC03449], the screen gave induced reporter light, run 1, well a = 1.36e5; induced reporter light, run 1, well b = 1.35e5; control promoter light, run 1, well a = 1.51e5; control promoter light, run 1, well b = 1.77e5; uninduced reporter light, run 1, well a = 11130. For Mbs (Myosin binding subunit) [DRSC09414], the entry reads induced reporter light, run 1, well a = 2.66e5; induced reporter light, run 1, well b = 1.86e5; control promoter light, run 1, well a = 3.75e5; control promoter light, run 1, well b = 3.06e5; uninduced reporter light, run 1, well a = 18050. For Mbs (Myosin binding subunit) [DRSC10525] the deposit lists induced reporter light, run 1, well a = 1.02e5; induced reporter light, run 1, well b = 1.61e5; control promoter light, run 1, well a = 76810; control promoter light, run 1, well b = 89520; uninduced reporter light, run 1, well a = 11000. Mbs (Myosin binding subunit) [DRSC10553] showed induced reporter light, run 1, well a = 2.52e5; induced reporter light, run 1, well b = 2.08e5; control promoter light, run 1, well a = 2.80e5; control promoter light, run 1, well b = 3.06e5; uninduced reporter light, run 1, well a = 11535. After knock-down of BaraB (Baramicin B) [DRSC06420], the screen gave induced reporter light, run 1, well a = 1.94e5; induced reporter light, run 1, well b = 2.31e5; control promoter light, run 1, well a = 2.09e5; control promoter light, run 1, well b = 2.28e5; uninduced reporter light, run 1, well a = 18378.

After knock-down of Irbp18 (Inverted repeat binding protein 18 kDa) [DRSC10612], the record shows induced reporter light, run 1, well a = 1.25e5; induced reporter light, run 1, well b = 1.14e5; control promoter light, run 1, well a = 2.02e5; control promoter light, run 1, well b = 1.55e5; uninduced reporter light, run 1, well a = 5095. Against toe (twin of eyg) [DRSC09174], the values are induced reporter light, run 1, well a = 2.29e5 (active); induced reporter light, run 1, well b = 2.51e5; control promoter light, run 1, well a = 1.90e5; control promoter light, run 1, well b = 1.72e5; uninduced reporter light, run 1, well a = 14465. For toe (twin of eyg) [DRSC09783] the deposit lists induced reporter light, run 1, well a = 81020; induced reporter light, run 1, well b = 78795; control promoter light, run 1, well a = 71120; control promoter light, run 1, well b = 81100; uninduced reporter light, run 1, well a = 8445. Against yl (yolkless) [DRSC20387], the entry reads induced reporter light, run 1, well a = 82505; induced reporter light, run 1, well b = 91740; control promoter light, run 1, well a = 88100; control promoter light, run 1, well b = 87535; uninduced reporter light, run 1, well a = 11610.

Records listed above marked active (1):
toe (twin of eyg) [DRSC09174] → induced reporter light, run 1, well a: 2.29e5 (active); induced reporter light, run 1, well b: 2.51e5; control promoter light, run 1, well a: 1.90e5; control promoter light, run 1, well b: 1.72e5; uninduced reporter light, run 1, well a: 14465

Further reagents follow.
cbc (crowded by cid) [DRSC06957] scored induced reporter light, run 1, well a = 2.43e5; induced reporter light, run 1, well b = 2.94e5; control promoter light, run 1, well a = 2.57e5; control promoter light, run 1, well b = 2.75e5; uninduced reporter light, run 1, well a = 18785. CG18789 [DRSC02696] scored induced reporter light, run 1, well a = 1.33e5; induced reporter light, run 1, well b = 1.41e5; control promoter light, run 1, well a = 1.39e5; control promoter light, run 1, well b = 1.73e5; uninduced reporter light, run 1, well a = 14415. With knock-down of TBC1D5 (TBC1 domain family member 5) [DRSC16421], the screen gave induced reporter light, run 1, well a = 1.41e5; induced reporter light, run 1, well b = 1.32e5; control promoter light, run 1, well a = 93910; control promoter light, run 1, well b = 93585; uninduced reporter light, run 1, well a = 10990. Flad2 (Flavin adenine dinucleotide synthetase 2) [DRSC02531] gave induced reporter light, run 1, well a = 1.77e5; induced reporter light, run 1, well b = 1.83e5; control promoter light, run 1, well a = 1.38e5; control promoter light, run 1, well b = 1.81e5; uninduced reporter light, run 1, well a = 17000. CG33332 [DRSC15504] gave induced reporter light, run 1, well a = 2.05e5; induced reporter light, run 1, well b = 2.45e5; control promoter light, run 1, well a = 2.48e5; control promoter light, run 1, well b = 2.45e5; uninduced reporter light, run 1, well a = 20990. After knock-down of asl (asterless) [DRSC12319], the record shows induced reporter light, run 1, well a = 1.61e5; induced reporter light, run 1, well b = 1.55e5; control promoter light, run 1, well a = 1.40e5; control promoter light, run 1, well b = 1.49e5; uninduced reporter light, run 1, well a = 13150.

Silencing of MED11 (Mediator complex subunit 11) [DRSC10739] gave: induced reporter light, run 1, well a = 7485; induced reporter light, run 1, well b = 6365; control promoter light, run 1, well a = 5750; control promoter light, run 1, well b = 6895; uninduced reporter light, run 1, well a = 3570. Silencing of Galphao (G protein alpha subunit o) [DRSC07430] came out at: induced reporter light, run 1, well a = 83925; induced reporter light, run 1, well b = 90445; control promoter light, run 1, well a = 69535; control promoter light, run 1, well b = 66785; uninduced reporter light, run 1, well a = 7292.
